From article doi:10.1101/2020.11.05.370551
No constants are given. Whether binding was seen depends on the method and setting. Binding seen in cells or lysates may run through a third protein. Some binding calls cover weakened binding; strength is not graded here.

B1: TAK1 (HEK293T cells) (enzyme, UniProt O43318 1-606)
chain: MSTASAASSSSSSSAGEMIEAPSQVLNFEEIDYKEIEVEEVVGRGAFGVVCKAKWRAKDVAIKQIESESERKAFIVELRQLSRVNHPNIVKLYGACLNPVCLVMEYAEGGSLYNVLHGAEPLPYYTAAHAMSWCLQCSQGVAYLHSMQPKALIHRDLKPPNLLLVAGGTVLKICDFGTACDIQTHMTNNKGSAAWMAPEVFEGSNYSEKCDVFSWGIILWEVITRRKPFDEIGGPAFRIMWAVHNGTRPPLIKNLPKPIESLMTRCWSKDPSQRPSMEEIVKIMTHLMRYFPGADEPLQYPCQYSDEGQSNSATSTGSFMDIASTNTSNKSDTNMEQVPATNDTIKRLESKLLKNQAKQQSESGRLSLGASRGSSVESLPPTSEGKRMSADMSEIEARIAATTAYSKPKRGHRKTASFGNILDVPEIVISGNGQPRRRSIQDLTVTGTEPGQVSSRSSSPSVRMITTSGPTSEKPTRSHPWTPDDSTDTNGSDNSIPMAYLTLDHQLQPLAPCPNSKESMAVFEQHCKMAQEYMKVQTEIALLLQRKQELVAELDQDEKDQQNTSRLVQEHKKLLDENKSLSTYYQQCKKQLEVIRSQQQKRQGTS
B2: TAB2 (HEK293T cells) (protein, UniProt Q9NYJ8 1-693)
chain: MAQGSHQIDFQVLHDLRQKFPEVPEVVVSRCMLQNNNNLDACCAVLSQESTRYLYGEGDLNFSDDSGISGLRNHMTSLNLDLQSQNIYHHGREGSRMNGSRTLTHSISDGQLQGGQSNSELFQQEPQTAPAQVPQGFNVFGMSSSSGASNSAPHLGFHLGSKGTSSLSQQTPRFNPIMVTLAPNIQTGRNTPTSLHIHGVPPPVLNSPQGNSIYIRPYITTPGGTTRQTQQHSGWVSQFNPMNPQQVYQPSQPGPWTTCPASNPLSHTSSQQPNQQGHQTSHVYMPISSPTTSQPPTIHSSGSSQSSAHSQYNIQNISTGPRKNQIEIKLEPPQRNNSSKLRSSGPRTSSTSSSVNSQTLNRNQPTVYIAASPPNTDELMSRSQPKVYISANAATGDEQVMRNQPTLFISTNSGASAASRNMSGQVSMGPAFIHHHPPKSRAIGNNSATSPRVVVTQPNTKYTFKITVSPNKPPAVSPGVVSPTFELTNLLNHPDHYVETENIQHLTDPTLAHVDRISETRKLSMGSDDAAYTQALLVHQKARMERLQRELEIQKKKLDKLKSEVNEMENNLTRRRLKRSNSISQIPSLEEMQQLRSCNRQLQIDIDCLTKEIDLFQARGPHFNPSAIHNFYDNIGFVGPVPPKPKDQRSIIKTPKTQDTEDDEGAQWNCTACTFLNHPALIRCEQCEMPRHF
B3: TAB3 (HEK293T cells) (protein, UniProt Q8N5C8 1-712)
chain: MAQSSPQLDIQVLHDLRQRFPEIPEGVVSQCMLQNNNNLEACCRALSQESSKYLYMEYHSPDDNRMNRNRLLHINLGIHSPSSYHPGDGAQLNGGRTLVHSSSDGHIDPQHAAGKQLICLVQEPHSAPAVVAATPNYNPFFMNEQNRSAATPPSQPPQQPSSMQTGMNPSAMQGPSPPPPPPSYMHIPRYSTNPITVTVSQNLPSGQTVPRALQILPQIPSNLYGSPGSIYIRQTSQSSSGRQTPQSTPWQSSPQGPVPHYSQRPLPVYPHQQNYQPSQYSPKQQQIPQSAYHSPPPSQCPSPFSSPQHQVQPSQLGHIFMPPSPSTTPPHPYQQGPPSYQKQGSHSVAYLPYTASSLSKGSMKKIEITVEPSQRPGTAINRSPSPISNQPSPRNQHSLYTATTPPSSSPSRGISSQPKPPFSVNPVYITYTQPTGPSCTPSPSPRVIPNPTTVFKITVGRATTENLLNLVDQEERSAAPEPIQPISVIPGSGGEKGSHKYQRSSSSGSDDYAYTQALLLHQRARMERLAKQLKLEKEELERLKSEVNGMEHDLMQRRLRRVSCTTAIPTPEEMTRLRSMNRQLQINVDCTLKEVDLLQSRGNFDPKAMNNFYDNIEPGPVVPPKPSKKDSSDPCTIERKARRISVTSKVQADIHDTQAAAADEHRTGSTQSPRTQPRDEDYEGAPWNCDSCTFLNHPALNRCEQCEMPRYT
B4: TAK1 (endogenous, U937 cells) (enzyme, UniProt O43318 1-606)
chain: B1 chain
B5: TAB2 (endogenous, U937 cells) (protein, UniProt Q9NYJ8 1-693)
chain: B2 chain
B6: TAB3 (endogenous, U937 cells) (protein, UniProt Q8N5C8 1-712)
chain: B3 chain

What follows are binders tested against GFP-tagged Mtb PknG (HEK293T) (Mycobacterium tuberculosis) (UniProt P9WI73) (assay: co-IP).
For B1, the binding was “binds”. For B2, the binding was “no binding”. In the case of B3, the binding is reported as “no binding”.

These binders were tested against Mtb PknG secreted by M. tuberculosis H37Rv in infected U937 cells (Mycobacterium tuberculosis H37Rv) (UniProt P9WI73) (assay: co-IP).
With B4 the binding was “binds”. With B5 the binding was “no binding”. In the case of B6, the binding is reported as “no binding”.
